Measurements reported in PubChem BioAssay AID1259308 (NCATS, 2017)

Screen: 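Genes whose loss raises luciferase production in HEK293 cells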 (primary screen)
Cell system: human HEK293 embryonic kidney cells stably expressing firefly luciferase (HEK-CMV-Luc2-Hygro)
Reagents: single siRNA against human genes, 0.8 pmol siRNA per well
Time to read-out: 72 h
Read-out: 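Luciferase light (ONE-Glo) measured on one replicate plate set and viability (CellTiter-Glo) on the other, scaled to a negative control siRNA, with robust z-scores and luciferase per cell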
Direction: total luciferase, z-score and total luciferase, % of control: higher = more reporter protein produced; luciferase per cell, z-score: higher = more reporter output per viable cell
Active means: 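An siRNA counts as active if its total luciferase robust z-score exceeds 3; genes with two or more such siRNAs out of three were retested with fresh siRNAs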
Calls: active = raised luciferase; inactive = no rise
Shown is an unselected part of about 59,000 reagents. About 1,510 of them (2.6%) were called active. 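Calls use total luciferase alone and ignore viability, so some active siRNAs may act by altering cell number.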 The numbers tell different reagents against one gene apart. Further read-outs or replicates are left out here.

target gene,reagent,"total luciferase, z-score","total luciferase, % of control","luciferase per cell, z-score",Outcome
MIR4500HG,1,-0.151,78.9,0.0244,inactive
MIR4500HG,2,-0.778,66.4,-0.489,inactive
MIR4500HG,3,-0.193,78,0.271,inactive
DSPP,1,-0.214,77.6,-0.82,inactive
DSPP,2,-0.276,76.4,-0.782,inactive
DSPP,3,-1.7,48.1,-1.09,inactive
HERC4,1,0.543,92.7,-0.0137,inactive
HERC4,2,0.164,85.1,0.294,inactive
HERC4,3,-0.786,66.3,-1.21,inactive
FCGR1A,1,0.154,84.9,0.000145,inactive
FCGR1A,2,0.614,94.1,-0.0801,inactive
FCGR1A,3,0.32,88.3,0.626,inactive
ZNF567,1,-0.203,77.8,-0.184,inactive
ZNF567,2,-0.502,71.9,-0.726,inactive
ZNF567,3,-0.126,79.4,-0.124,inactive
SUGT1,1,-0.485,72.2,-0.552,inactive
SUGT1,2,-0.472,72.5,-0.534,inactive
SUGT1,3,-0.0733,80.4,-0.1,inactive
P2RY10,1,0.111,84.1,1.43,inactive
P2RY10,2,-0.206,77.8,-0.531,inactive
P2RY10,3,-0.241,77.1,-0.379,inactive
AFG1L,1,-0.641,69.1,-0.586,inactive
AFG1L,2,1.93,120,1.56,inactive
AFG1L,3,1.84,119,1.44,inactive
LINC01630,1,1.33,108,0.501,inactive
LINC01630,2,-0.775,66.5,-0.725,inactive
LINC01630,3,0.697,95.7,0.873,inactive
FN1,1,1.65,115,1.54,inactive
FN1,2,-0.0316,81.3,-0.111,inactive
FN1,3,0.202,85.9,0.363,inactive
PARP10,1,0.775,97.3,-0.0643,inactive
PARP10,2,-1.51,51.8,-0.708,inactive
PARP10,3,-0.324,75.4,0.437,inactive
SLC14A2,1,0.881,99.4,0.646,inactive
SLC14A2,2,-0.313,75.7,-0.649,inactive
SLC14A2,3,1.59,114,1.59,inactive
PPFIA4,1,-1.6,50.1,-1.31,inactive
PPFIA4,2,-1.07,60.7,-1.75,inactive
PPFIA4,3,0.558,93,-0.2,inactive
UBXN4,1,-0.0243,81.4,-0.741,inactive
UBXN4,2,-2.32,35.8,-2.61,inactive
UBXN4,3,-0.0941,80,1.59,inactive
SIX4,1,-0.266,76.6,0.446,inactive
SIX4,2,-0.916,63.7,-0.766,inactive
SIX4,3,-1.63,49.4,-1.46,inactive
HAUS4,1,-0.681,68.3,0.482,inactive
HAUS4,2,1.25,107,0.773,inactive
HAUS4,3,-2.08,40.6,-1.76,inactive
SPOP,1,1.02,102,0.775,inactive
SPOP,2,0.305,88,0.545,inactive
SPOP,3,0.311,88.1,0.398,inactive
DNASE2,1,-2.78,26.5,-2.75,inactive
DNASE2,2,-0.21,77.7,-0.173,inactive
DNASE2,3,1.08,103,2.77,inactive
KLHL24,1,0.214,86.1,0.314,inactive
KLHL24,2,0.73,96.4,0.318,inactive
KLHL24,3,-0.152,78.9,-0.265,inactive
EQTN,1,-0.958,62.8,-0.609,inactive
EQTN,2,-0.533,71.3,-0.451,inactive
EQTN,3,-1.05,61.1,-0.297,inactive
QSOX1,1,-1.35,55.1,-1.82,inactive
QSOX1,2,-1.8,46.1,-2.15,inactive
QSOX1,3,0.655,94.9,-0.0743,inactive
TMEM196,1,0.153,84.9,-0.124,inactive
TMEM196,2,1.44,111,1.01,inactive
TMEM196,3,-0.312,75.7,-0.874,inactive
SEC31B,1,-0.0597,80.7,-0.0607,inactive
SEC31B,2,0.635,94.5,0.643,inactive
SEC31B,3,0.923,100,0.601,inactive
LBR,1,1.07,103,2,inactive
LBR,2,1.53,112,1.28,inactive
LBR,3,0.576,93.3,-0.424,inactive
TXNL1,1,-0.158,78.7,-0.112,inactive
TXNL1,2,0.266,87.2,1.33,inactive
TXNL1,3,-0.763,66.7,-1.7,inactive
